From the supplement of paper PMC12819154, “High-throughput peptide-centric local stability assay extends protein–ligand identification to membrane proteins, tissues and bacteria” (Nature Structural & Molecular Biology, 2025) come the findings set out here.

By UniProt entry, the sequences of proteins in these tests, tags left out. Where a name states a change or a piece, a line headed by the entry shows the natural chain unless it says otherwise.
UniProt Q99627: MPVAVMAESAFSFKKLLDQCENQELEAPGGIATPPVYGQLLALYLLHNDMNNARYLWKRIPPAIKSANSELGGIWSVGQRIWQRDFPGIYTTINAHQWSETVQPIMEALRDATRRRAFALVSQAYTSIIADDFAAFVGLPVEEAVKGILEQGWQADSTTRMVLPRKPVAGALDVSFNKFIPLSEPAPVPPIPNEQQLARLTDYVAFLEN
UniProt Q9BTM9: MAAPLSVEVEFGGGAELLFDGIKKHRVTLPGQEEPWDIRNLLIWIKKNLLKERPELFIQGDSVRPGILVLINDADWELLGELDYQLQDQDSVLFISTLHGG
UniProt Q99497, whole entry: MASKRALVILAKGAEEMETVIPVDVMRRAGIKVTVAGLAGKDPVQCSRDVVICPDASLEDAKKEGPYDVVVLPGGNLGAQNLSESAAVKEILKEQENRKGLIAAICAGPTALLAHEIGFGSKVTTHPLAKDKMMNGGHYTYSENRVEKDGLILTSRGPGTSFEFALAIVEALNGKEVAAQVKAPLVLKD
UniProt Q9BRF8, whole entry: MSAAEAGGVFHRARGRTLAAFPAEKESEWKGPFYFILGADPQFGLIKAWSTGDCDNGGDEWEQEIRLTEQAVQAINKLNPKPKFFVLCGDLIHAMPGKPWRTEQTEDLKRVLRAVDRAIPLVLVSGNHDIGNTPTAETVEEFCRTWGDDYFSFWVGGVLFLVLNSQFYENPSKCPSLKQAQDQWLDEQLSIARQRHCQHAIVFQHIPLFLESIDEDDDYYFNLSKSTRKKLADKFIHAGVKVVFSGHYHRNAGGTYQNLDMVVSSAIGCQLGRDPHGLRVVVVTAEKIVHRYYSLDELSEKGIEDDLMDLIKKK
UniProt Q96S53: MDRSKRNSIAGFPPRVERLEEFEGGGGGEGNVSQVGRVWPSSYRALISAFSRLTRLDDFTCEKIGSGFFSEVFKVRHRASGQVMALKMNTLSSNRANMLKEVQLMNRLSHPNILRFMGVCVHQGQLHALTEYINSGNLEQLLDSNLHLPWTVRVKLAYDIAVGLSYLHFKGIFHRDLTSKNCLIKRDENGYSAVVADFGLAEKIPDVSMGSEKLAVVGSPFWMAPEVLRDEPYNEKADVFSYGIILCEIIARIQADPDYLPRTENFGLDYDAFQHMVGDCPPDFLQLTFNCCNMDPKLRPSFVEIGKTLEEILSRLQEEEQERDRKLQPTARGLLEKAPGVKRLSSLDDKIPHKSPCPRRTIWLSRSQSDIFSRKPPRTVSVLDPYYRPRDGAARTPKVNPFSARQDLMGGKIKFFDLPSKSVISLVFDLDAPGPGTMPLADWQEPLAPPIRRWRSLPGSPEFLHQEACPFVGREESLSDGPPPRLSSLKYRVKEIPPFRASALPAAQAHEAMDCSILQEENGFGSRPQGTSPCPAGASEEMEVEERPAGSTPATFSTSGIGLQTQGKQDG
UniProt Q9BQI3, whole entry: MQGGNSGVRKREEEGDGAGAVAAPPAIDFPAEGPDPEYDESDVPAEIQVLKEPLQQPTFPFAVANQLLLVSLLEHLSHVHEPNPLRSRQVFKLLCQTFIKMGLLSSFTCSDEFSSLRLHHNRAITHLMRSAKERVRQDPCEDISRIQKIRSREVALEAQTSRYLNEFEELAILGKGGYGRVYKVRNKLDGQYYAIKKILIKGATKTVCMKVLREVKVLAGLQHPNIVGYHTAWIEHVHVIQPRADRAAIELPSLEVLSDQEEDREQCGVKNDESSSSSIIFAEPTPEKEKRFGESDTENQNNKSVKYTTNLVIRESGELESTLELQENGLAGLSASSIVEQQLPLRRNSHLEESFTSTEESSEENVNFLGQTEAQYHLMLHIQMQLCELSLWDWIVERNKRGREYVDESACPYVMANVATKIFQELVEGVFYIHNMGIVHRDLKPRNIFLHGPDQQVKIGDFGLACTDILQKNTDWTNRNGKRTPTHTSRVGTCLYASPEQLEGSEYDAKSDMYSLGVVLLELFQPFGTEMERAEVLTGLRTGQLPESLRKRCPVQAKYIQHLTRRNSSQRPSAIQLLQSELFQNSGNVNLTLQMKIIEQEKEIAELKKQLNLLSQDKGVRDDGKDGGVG
UniProt Q99622: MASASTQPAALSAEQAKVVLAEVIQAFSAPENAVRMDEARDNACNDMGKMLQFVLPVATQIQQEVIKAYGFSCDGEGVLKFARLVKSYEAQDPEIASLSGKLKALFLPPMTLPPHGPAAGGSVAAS
UniProt Q9BSF8: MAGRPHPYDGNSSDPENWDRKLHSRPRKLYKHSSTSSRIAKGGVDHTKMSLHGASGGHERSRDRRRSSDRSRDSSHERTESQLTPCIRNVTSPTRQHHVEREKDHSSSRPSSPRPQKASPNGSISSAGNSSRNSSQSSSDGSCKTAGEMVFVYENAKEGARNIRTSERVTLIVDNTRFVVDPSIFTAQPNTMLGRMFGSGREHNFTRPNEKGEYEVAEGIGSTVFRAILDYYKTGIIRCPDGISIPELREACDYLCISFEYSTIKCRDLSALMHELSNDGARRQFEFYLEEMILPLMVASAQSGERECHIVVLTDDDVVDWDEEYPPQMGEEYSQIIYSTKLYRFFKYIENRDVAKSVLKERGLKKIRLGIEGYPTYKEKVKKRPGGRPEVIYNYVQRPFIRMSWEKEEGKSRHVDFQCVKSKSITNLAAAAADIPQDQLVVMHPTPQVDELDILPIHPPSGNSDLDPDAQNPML
UniProt Q99942: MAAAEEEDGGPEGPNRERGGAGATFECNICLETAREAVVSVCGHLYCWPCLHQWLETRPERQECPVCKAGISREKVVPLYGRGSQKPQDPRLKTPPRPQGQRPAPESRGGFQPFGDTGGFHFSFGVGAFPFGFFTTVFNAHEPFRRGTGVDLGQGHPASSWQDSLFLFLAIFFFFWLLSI
UniProt Q99707: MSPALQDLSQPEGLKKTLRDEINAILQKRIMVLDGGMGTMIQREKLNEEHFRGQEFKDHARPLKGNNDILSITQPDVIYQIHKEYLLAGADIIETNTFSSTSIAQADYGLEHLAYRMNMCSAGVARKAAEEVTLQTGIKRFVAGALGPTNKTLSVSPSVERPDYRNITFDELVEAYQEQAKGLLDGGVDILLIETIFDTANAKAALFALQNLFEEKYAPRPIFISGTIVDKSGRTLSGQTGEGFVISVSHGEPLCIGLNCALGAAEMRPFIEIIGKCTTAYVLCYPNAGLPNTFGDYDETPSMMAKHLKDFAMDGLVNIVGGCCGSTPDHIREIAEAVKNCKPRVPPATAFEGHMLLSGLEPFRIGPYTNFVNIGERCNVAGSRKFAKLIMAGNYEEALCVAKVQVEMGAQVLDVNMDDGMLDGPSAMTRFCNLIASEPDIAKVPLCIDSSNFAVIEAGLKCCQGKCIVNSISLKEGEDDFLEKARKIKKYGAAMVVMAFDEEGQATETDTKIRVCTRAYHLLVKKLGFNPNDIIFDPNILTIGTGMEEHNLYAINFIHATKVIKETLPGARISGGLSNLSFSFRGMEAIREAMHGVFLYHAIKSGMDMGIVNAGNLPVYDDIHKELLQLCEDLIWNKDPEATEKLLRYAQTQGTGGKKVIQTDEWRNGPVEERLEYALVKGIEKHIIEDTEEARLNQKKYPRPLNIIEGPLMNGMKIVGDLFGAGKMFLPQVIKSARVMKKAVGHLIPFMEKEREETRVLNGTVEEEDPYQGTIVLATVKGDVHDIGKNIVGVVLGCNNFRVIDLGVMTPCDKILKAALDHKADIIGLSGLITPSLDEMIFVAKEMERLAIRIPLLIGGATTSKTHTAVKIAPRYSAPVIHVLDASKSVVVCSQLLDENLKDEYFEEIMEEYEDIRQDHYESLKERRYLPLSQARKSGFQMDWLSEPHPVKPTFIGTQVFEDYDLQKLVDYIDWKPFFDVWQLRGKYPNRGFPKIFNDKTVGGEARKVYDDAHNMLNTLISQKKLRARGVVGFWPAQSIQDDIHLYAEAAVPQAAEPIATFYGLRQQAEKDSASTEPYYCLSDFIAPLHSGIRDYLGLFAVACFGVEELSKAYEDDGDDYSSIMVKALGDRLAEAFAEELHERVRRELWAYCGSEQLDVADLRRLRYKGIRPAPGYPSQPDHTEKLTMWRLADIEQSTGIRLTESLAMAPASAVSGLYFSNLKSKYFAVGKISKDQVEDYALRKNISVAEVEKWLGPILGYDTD
UniProt Q99547: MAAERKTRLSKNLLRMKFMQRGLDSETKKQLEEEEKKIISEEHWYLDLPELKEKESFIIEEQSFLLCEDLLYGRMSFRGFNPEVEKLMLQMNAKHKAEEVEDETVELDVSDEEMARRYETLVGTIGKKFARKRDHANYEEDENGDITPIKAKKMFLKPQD
UniProt Q99759: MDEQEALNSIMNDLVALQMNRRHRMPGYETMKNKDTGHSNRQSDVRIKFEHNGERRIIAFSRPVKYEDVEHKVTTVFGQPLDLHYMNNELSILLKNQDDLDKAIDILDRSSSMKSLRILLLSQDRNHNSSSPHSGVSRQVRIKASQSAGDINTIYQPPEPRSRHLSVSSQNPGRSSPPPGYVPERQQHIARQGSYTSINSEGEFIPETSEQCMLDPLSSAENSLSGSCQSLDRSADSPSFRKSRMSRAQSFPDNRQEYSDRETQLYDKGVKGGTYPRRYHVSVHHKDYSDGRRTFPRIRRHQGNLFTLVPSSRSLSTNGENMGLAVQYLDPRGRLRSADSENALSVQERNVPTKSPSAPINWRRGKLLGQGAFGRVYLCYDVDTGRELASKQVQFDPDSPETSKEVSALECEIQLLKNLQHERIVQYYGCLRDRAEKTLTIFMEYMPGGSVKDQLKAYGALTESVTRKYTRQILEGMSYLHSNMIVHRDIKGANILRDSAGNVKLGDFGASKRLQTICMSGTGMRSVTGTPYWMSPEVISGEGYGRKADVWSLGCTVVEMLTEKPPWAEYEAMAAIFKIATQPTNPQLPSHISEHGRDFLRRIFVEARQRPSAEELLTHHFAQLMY
UniProt Q9BQ15: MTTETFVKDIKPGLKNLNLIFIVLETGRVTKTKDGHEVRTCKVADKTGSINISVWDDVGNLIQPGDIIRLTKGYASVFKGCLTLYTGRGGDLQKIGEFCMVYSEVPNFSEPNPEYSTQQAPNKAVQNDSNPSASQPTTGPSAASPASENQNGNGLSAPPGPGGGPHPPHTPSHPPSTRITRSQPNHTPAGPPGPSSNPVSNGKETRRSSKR
UniProt Q99963: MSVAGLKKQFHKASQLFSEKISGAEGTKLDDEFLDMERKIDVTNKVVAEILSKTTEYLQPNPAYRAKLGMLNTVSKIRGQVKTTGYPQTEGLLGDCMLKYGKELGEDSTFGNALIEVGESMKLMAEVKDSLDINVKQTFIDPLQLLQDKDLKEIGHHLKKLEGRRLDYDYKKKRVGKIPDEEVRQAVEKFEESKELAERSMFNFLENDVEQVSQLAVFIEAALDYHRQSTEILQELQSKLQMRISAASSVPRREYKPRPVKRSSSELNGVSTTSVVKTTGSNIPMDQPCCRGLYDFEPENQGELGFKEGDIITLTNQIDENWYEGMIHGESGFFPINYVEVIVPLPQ
UniProt Q9BTE3: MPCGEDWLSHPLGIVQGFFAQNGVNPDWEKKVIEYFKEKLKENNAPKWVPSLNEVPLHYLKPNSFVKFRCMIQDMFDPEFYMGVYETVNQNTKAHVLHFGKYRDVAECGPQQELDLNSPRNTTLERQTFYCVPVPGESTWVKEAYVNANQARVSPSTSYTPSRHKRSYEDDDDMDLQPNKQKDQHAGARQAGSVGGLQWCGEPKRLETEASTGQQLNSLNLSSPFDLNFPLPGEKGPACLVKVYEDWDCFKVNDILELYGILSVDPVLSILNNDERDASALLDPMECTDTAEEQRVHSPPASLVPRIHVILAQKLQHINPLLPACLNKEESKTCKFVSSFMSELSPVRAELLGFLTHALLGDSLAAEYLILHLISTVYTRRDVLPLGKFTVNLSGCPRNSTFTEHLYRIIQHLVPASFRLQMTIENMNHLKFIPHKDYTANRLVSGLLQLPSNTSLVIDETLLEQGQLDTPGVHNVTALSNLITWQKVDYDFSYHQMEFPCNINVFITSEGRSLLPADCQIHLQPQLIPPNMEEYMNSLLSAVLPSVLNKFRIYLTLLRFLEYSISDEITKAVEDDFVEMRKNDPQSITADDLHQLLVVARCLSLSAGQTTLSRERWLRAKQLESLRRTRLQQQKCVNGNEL
UniProt Q9BSM1: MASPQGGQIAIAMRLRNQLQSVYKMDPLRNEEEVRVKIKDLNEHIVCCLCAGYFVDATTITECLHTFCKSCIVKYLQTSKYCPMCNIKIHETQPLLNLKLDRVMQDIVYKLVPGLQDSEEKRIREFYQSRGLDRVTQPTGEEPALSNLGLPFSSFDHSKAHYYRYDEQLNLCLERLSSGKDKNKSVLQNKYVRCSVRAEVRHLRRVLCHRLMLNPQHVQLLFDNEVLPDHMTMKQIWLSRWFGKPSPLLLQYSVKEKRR
UniProt Q99943: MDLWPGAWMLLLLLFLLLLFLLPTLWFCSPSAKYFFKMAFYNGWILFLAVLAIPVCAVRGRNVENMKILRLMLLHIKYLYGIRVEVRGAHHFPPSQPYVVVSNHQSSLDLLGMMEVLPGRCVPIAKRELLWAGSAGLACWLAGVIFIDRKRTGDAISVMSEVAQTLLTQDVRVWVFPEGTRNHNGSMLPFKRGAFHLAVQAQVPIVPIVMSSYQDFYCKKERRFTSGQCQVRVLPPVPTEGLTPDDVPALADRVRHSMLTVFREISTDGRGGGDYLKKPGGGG

Some of the results follow. Most values lie at the level of the controls, where differences are scatter.

Compound in this assay: Cc1nc(Nc2ncc(C(=O)Nc3c(C)cccc3Cl)s2)cc(N2CCN(CCO)CC2)n1 [dasatinib]
Put plainly: log2 fold change of tryptic peptide abundance, ligand vs vehicle (limited proteolysis) (log2 ratio); higher = more trypsin-susceptible (destabilized). Conditions: ligand concentration: 5 uM; sample: K562 cleared lysate.
Take “COPS8 (peptide sequence: KPVAGALDVSFNK, peptide start residue: 166) (UniProt Q99627)”: the log2 fold change was determined as 0.0257.
With “PLEKHF1 (peptide sequence: QEWISHIEECVRR, peptide start residue: 120) (UniProt Q96S99)” the figure was -0.355; with “OSBPL9 (peptide sequence: HTLQLQGLDSGFVPSVQDFDKK, peptide start residue: 101) (UniProt Q96SU4)”, 0.298.
As to “SPEN (peptide sequence: VLPYSNITVR, peptide start residue: 1294) (UniProt Q96T58)”, the log2 fold change was -0.197.
In the case of “URM1 (peptide sequence: HRVTLPGQEEPWDIR, peptide start residue: 25) (UniProt Q9BTM9)”, the log2 fold change was -0.32.
With “UniProt Q99541 (peptide sequence: DQYPYLK, peptide start residue: 38)” the figure was -0.246; with “UniProt Q99607 (peptide sequence: DQAHLQPLPTQVVSR, peptide start residue: 572)”, -0.134.
“PARK7 (peptide sequence: KGLIAAICAGPTALLAHEIGFGSK, peptide start residue: 99) (UniProt Q99497)”: the log2 fold change was 0.167.
Regarding “CPPED1 (peptide sequence: LTEQAVQAINK, peptide start residue: 67) (UniProt Q9BRF8)”, the log2 fold change was determined as 0.781.
As for “SEC62 (peptide sequence: KENIKDEK, peptide start residue: 127) (UniProt Q99442)”, the log2 fold change stood at 0.566.
As to “TESK2 (peptide sequence: ASGQVMALK, peptide start residue: 79) (UniProt Q96S53)”, the log2 fold change is -0.636.
As for “UniProt Q9BQI3 (peptide sequence: SREVALEAQTSR, peptide start residue: 151)”, the log2 fold change amounted to 0.204.
For “C12orf57 (peptide sequence: DNACNDMGK, peptide start residue: 41) (UniProt Q99622)”, the log2 fold change turned out to be 0.0975.
Consider “UniProt Q99973 (peptide sequence: NQCLATLPDLK, peptide start residue: 49)”, for which the log2 fold change is -0.905.
With “BTBD10 (peptide sequence: AILDYYK, peptide start residue: 227) (UniProt Q9BSF8)”, the log2 fold change amounted to 0.107.
As for “RNF5 (peptide sequence: AAAEEEDGGPEGPNRER, peptide start residue: 2) (UniProt Q99942)”, the log2 fold change was -0.421.
On to “MTR (peptide sequence: VIKETLPGAR, peptide start residue: 563) (UniProt Q99707)”, for which the log2 fold change came to 0.398.
As for “SERPINI1 (peptide sequence: HSMGYDSLK, peptide start residue: 74) (UniProt Q99574)”, the log2 fold change stood at 0.286.
For “MPHOSPH6 (peptide sequence: GLDSETKK, peptide start residue: 22) (UniProt Q99547)”, the log2 fold change was -0.108.
“UniProt Q99759 (peptide sequence: HLSVSSQNPGR, peptide start residue: 164)”: the log2 fold change turned out to be 0.548.
“NABP2 (peptide sequence: GCLTLYTGR, peptide start residue: 80) (UniProt Q9BQ15)”: the log2 fold change was -0.217.
Consider “COPS4 (peptide sequence: EALPTWDK, peptide start residue: 365) (UniProt Q9BT78)”, for which the log2 fold change is -0.343.
Consider “GINS4 (peptide sequence: FFPHVLEK, peptide start residue: 103) (UniProt Q9BRT9)”, for which the log2 fold change came out at 0.515.
The same measure for “SH3GL3 (peptide sequence: QAVEKFEESK, peptide start residue: 185) (UniProt Q99963)”: -0.254.
With “RPP25 (peptide sequence: SLGEPAAGEGSAK, peptide start residue: 172) (UniProt Q9BUL9)” the figure was 0.0443; with “UniProt Q9BTE3 (peptide sequence: LQMTIENMNHLK, peptide start residue: 420)”, -0.546; with “POP1 (peptide sequence: DDGENAKPIK, peptide start residue: 388) (UniProt Q99575)”, -0.43.
With “PCGF1 (peptide sequence: NQLQSVYK, peptide start residue: 17) (UniProt Q9BSM1)”, the log2 fold change is 0.0658.
With “AGPAT1 (peptide sequence: GGGDYLKKPGGGG, peptide start residue: 271) (UniProt Q99943)” the figure was -0.0781.
